# The other results are listed elsewhere or left out.
# The chains behind the UniProt entries cited, without tags or fusion partners. Where a name states a change or a piece, a line headed by the entry shows the natural chain unless it says otherwise.
# UniProt Q7Z6K3: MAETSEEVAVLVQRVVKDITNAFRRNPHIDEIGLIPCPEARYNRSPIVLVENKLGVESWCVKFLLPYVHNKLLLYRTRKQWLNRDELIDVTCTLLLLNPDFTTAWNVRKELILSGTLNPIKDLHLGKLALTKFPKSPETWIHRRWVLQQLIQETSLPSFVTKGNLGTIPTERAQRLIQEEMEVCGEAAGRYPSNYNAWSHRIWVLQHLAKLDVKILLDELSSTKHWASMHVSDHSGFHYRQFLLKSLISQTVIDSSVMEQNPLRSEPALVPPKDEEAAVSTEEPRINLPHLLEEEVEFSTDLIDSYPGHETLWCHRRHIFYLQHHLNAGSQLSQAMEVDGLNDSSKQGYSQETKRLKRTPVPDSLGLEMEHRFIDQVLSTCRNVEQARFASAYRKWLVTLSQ
# UniProt Q13200: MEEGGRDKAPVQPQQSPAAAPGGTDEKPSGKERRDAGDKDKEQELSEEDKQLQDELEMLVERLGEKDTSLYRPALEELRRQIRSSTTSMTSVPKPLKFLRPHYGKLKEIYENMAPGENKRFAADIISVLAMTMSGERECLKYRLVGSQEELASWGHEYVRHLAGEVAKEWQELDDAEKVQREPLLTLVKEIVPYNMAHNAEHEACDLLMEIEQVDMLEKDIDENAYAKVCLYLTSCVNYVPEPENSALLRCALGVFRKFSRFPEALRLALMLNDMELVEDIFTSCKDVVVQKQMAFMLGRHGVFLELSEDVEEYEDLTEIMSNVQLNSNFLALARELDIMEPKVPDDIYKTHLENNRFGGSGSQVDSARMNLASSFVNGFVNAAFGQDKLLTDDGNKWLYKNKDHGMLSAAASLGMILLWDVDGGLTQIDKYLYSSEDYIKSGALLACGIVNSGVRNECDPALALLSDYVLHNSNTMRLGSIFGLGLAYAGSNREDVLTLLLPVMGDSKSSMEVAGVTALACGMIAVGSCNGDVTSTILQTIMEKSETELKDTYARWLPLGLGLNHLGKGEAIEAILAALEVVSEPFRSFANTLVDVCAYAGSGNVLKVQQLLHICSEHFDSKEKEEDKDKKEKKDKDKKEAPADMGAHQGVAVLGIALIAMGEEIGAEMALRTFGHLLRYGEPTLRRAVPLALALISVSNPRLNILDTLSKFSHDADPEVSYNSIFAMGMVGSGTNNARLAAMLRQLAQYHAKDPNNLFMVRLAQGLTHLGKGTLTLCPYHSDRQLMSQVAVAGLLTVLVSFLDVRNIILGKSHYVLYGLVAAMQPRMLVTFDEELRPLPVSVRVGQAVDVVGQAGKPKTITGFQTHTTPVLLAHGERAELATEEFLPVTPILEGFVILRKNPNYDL
# UniProt O95997: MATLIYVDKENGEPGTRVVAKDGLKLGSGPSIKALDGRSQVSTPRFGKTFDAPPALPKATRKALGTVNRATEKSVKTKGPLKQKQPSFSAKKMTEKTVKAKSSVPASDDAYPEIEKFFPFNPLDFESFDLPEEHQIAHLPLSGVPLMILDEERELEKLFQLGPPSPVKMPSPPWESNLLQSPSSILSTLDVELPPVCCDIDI
# UniProt Q5JS54: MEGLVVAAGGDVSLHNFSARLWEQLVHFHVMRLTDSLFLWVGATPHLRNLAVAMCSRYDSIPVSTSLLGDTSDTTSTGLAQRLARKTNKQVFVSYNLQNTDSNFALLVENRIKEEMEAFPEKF
# UniProt P06454: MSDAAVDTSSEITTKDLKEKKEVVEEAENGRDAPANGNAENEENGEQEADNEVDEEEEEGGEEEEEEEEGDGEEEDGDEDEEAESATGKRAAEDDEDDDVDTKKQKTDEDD
# UniProt O00233: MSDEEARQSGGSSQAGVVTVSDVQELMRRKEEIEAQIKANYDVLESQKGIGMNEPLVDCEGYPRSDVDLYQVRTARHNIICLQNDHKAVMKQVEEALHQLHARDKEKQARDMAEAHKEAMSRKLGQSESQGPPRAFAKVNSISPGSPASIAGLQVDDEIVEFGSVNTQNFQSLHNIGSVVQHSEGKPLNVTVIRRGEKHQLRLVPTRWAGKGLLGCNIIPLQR
# UniProt Q8WUK0: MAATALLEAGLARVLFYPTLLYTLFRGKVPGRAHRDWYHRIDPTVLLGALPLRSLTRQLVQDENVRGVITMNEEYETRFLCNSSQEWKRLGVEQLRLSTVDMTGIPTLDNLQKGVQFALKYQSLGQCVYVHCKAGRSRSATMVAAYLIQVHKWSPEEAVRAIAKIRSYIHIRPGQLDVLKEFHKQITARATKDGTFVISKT
# UniProt Q99436: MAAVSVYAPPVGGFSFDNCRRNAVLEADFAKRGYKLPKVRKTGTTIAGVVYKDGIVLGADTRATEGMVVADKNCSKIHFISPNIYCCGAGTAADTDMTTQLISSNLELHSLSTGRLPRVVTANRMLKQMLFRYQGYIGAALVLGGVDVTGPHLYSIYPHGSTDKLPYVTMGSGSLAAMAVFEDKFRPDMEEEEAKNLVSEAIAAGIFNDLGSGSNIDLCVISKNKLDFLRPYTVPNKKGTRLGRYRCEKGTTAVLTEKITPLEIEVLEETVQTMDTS
# UniProt O00231, whole entry, looked up: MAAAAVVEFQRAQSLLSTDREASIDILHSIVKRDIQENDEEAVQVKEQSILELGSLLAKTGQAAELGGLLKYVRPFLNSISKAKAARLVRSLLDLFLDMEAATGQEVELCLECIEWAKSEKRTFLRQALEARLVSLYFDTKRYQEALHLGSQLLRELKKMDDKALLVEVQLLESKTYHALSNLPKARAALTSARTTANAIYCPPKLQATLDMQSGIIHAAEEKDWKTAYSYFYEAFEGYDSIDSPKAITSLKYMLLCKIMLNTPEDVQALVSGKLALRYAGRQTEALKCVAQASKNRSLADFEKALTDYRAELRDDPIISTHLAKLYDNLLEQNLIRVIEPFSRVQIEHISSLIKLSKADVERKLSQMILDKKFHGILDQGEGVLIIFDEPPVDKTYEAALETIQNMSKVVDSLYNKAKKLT
# UniProt Q15269: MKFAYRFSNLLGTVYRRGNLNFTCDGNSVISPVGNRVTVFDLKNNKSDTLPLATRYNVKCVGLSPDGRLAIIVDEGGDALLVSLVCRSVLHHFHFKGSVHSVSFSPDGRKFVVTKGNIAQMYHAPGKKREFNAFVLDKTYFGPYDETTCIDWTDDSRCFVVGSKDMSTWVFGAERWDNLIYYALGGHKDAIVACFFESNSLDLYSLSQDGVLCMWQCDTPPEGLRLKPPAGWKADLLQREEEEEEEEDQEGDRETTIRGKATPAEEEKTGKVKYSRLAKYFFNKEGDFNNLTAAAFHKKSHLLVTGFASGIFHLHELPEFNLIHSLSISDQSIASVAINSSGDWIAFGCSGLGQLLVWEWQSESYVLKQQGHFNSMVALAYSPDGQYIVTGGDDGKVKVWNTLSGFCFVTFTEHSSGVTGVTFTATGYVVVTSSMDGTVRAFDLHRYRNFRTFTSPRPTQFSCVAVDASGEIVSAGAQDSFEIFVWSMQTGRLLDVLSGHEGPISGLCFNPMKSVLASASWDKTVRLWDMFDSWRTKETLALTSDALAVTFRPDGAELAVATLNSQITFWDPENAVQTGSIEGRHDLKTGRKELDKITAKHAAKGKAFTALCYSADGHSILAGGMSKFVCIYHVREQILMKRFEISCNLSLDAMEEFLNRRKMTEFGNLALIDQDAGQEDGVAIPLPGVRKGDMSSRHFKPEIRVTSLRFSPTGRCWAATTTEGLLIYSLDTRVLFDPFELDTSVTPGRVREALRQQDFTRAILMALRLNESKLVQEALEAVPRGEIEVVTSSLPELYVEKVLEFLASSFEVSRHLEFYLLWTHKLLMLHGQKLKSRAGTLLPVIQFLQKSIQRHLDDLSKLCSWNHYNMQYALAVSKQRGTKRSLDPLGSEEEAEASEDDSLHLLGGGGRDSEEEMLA
# UniProt Q14558: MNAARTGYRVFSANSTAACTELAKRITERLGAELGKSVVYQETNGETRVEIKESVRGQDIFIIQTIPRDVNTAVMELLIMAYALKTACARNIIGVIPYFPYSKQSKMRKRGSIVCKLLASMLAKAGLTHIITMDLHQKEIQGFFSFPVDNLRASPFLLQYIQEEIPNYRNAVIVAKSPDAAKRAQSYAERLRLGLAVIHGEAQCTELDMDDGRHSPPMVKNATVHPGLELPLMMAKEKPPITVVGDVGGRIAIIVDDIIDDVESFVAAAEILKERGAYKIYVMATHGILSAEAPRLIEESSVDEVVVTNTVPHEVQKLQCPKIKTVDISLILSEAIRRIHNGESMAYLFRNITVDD
# UniProt Q9UKA9: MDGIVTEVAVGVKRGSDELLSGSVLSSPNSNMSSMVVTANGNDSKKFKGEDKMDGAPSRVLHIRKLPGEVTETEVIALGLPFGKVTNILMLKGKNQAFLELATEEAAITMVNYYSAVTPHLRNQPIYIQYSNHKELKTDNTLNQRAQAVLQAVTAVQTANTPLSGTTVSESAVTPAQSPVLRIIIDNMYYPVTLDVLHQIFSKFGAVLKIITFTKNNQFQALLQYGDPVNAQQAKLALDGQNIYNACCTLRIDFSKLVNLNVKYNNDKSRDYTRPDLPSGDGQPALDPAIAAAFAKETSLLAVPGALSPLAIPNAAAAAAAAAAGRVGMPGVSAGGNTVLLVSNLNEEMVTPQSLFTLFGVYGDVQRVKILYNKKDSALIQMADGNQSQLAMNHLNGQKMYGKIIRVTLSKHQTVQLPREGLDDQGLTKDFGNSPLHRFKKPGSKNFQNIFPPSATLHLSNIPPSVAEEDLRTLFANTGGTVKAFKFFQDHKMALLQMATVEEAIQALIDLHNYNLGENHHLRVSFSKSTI
# UniProt O95456: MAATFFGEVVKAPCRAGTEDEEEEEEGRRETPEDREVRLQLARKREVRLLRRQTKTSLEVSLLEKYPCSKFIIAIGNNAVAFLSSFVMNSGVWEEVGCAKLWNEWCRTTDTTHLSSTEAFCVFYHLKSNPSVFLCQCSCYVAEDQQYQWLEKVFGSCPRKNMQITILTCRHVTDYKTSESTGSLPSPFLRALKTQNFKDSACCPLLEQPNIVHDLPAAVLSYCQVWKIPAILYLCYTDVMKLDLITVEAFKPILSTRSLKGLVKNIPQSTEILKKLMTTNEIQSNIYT
# UniProt Q969U7: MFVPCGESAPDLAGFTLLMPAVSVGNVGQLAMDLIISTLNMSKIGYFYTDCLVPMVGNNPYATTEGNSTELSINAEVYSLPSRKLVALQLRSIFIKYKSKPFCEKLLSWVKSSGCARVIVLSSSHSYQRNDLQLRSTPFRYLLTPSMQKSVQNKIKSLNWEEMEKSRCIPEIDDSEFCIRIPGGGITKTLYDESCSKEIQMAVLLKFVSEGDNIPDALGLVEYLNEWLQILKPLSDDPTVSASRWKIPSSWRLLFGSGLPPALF
# UniProt Q6GMV3: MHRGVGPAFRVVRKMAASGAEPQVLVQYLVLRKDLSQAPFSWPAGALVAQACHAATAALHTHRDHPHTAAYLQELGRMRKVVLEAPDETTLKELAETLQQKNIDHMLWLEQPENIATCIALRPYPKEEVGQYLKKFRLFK
# UniProt Q96PZ0: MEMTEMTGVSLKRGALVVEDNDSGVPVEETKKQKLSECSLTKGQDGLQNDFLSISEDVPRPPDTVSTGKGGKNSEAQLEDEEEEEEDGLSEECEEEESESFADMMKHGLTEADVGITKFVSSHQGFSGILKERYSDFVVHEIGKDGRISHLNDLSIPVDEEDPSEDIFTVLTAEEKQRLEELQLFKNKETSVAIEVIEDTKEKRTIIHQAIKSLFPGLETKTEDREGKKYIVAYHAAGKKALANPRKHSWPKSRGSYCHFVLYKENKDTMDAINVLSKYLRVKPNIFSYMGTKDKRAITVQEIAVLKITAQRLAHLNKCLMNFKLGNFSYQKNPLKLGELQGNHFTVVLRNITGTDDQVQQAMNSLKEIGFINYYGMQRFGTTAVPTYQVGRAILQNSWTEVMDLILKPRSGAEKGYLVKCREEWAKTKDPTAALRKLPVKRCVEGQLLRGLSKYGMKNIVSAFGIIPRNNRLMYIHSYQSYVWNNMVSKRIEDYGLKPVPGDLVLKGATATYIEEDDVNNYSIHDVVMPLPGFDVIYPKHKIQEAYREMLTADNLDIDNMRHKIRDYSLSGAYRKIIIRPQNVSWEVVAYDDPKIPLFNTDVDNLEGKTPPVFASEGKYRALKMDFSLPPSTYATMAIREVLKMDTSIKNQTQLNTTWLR
# UniProt P61289: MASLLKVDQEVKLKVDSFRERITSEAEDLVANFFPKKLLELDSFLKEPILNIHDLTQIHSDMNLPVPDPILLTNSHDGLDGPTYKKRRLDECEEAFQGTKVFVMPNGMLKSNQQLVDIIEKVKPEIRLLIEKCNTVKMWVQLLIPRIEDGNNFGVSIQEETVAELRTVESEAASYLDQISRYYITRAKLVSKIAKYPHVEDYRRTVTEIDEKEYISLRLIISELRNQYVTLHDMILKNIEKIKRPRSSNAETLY
# UniProt P11908: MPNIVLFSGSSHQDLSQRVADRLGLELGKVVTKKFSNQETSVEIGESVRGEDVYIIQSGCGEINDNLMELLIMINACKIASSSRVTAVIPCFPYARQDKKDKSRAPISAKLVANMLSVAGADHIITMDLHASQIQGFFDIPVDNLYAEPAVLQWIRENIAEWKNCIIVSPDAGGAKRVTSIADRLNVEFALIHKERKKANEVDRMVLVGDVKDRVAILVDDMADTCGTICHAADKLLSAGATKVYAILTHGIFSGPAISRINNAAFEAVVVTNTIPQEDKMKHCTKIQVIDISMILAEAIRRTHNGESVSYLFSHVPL
# What was measured:
# Test in all cases: log2 fold change, soluble protein after heating vs DMSO (PISA); higher = thermal stabilisation; K562 lysate, 10 uM; active = over 0.2 and 3.5 SD of the protein, either way, in both replicates (recomputed)
# vemurafenib = compound: CCCS(=O)(=O)Nc1ccc(F)c(C(=O)c2c[nH]c3ncc(-c4ccc(Cl)cc4)cc23)c1F [vemurafenib]
# Outline: (§1)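 Following dounce homogenisation of K562 pellets in PBS pH 7.4 with 1 mM MgCl2, crude extract at 1 mg/mL protein was incubated for 30 min with 10 μM compound. Aliquots were then heated for 3 min over 48°C-58°C and pooled, NP-40 was added to 0.5% at 4°C, and soluble protein was recovered as the supernatant at 21,000xg for 90 min. Channel-sum-equalised TMTpro 16plex LC-MS/MS quantified this protein. Each value, from duplicates, is a log-two fold change in thermal stability relative to solvent controls.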
# [1] = compound: CCCS(=O)(=O)Nc1ccc(F)c(C(=O)c2c[nH]c3ncc(Cl)cc23)c1F
# Outline: as §1
# barasertib = compound: CCN(CCCOc1ccc2c(Nc3cc(CC(=O)Nc4cccc(F)c4)[nH]n3)ncnc2c1)CCOP(=O)(O)O [barasertib]
# Outline: as §1
# [2] = compound: CC[C@@H]1C(=O)N(C)c2cnc(Nc3ccc(C(=O)NC4CCN(C)CC4)cc3OC)nc2N1C1CCCC1
# Outline: as §1
# volasertib = compound: CC[C@@H]1C(=O)N(C)c2cnc(Nc3ccc(C(=O)N[C@H]4CC[C@H](N5CCN(CC6CC6)CC5)CC4)cc3OC)nc2N1C(C)C [volasertib]
# Outline: as §1
# [3] = compound: CCn1c(C(=O)N(C2CC2)C2CC2)cc2c3c(ncn3C)c(Nc3cc(C)n(C)n3)nc21
# Outline: as §1
# [4] = compound: CCn1cc(-c2ccnc3[nH]c(-c4cccc(CN(C)C)c4)cc23)c(-c2ccc(NC(=O)N(C)C)cc2)n1
# Outline: as §1
# [5] = compound: CN1CCC(CNc2ccc3ncc(-c4cccc(OC(F)(F)F)c4)n3n2)CC1
# Outline: as §1
# saracatinib = compound: CN1CCN(CCOc2cc(OC3CCOCC3)c3c(Nc4c(Cl)ccc5c4OCO5)ncnc3c2)CC1 [saracatinib]
# Outline: as §1
# sotrastaurin = compound: CN1CCN(c2nc(C3=C(c4c[nH]c5ccccc45)C(=O)NC3=O)c3ccccc3n2)CC1 [sotrastaurin]
# Outline: as §1
Target,log2 fold change (vemurafenib),log2 fold change [1],log2 fold change (barasertib),log2 fold change [2],log2 fold change (volasertib),log2 fold change [3],log2 fold change [4],log2 fold change [5],log2 fold change (saracatinib),log2 fold change (sotrastaurin)
PTAR1 (UniProt Q7Z6K3),inactive: -0.024,inactive: 0.029,inactive: -0.12,inactive: 0.116,inactive: 0.084,inactive: -0.003,inactive: -0.003,inactive: 0.028,inactive: -0.034,inactive: -0.024
PSMD2 (UniProt Q13200),inactive: -0.002,inactive: 0.013,inactive: -0.003,inactive: -0.027,inactive: -0.018,inactive: -0.001,inactive: 0.071,inactive: -0.036,inactive: 0.002,inactive: 0.005
PTTG1 (UniProt O95997),inactive: -0.033,inactive: 0.043,inactive: -0.028,inactive: 0.043,inactive: -0.012,inactive: 0.029,inactive: 0.053,inactive: -0.124,inactive: 0.045,inactive: -0.039
PSMG4 isoform 2 (UniProt Q5JS54),inactive: 0.008,inactive: 0.012,inactive: 0.097,inactive: 0,inactive: 0.048,inactive: 0.073,inactive: -0.257,inactive: -0.024,inactive: -0.009,inactive: 0.02
PTMA (UniProt P06454),inactive: 0.022,inactive: -0.049,inactive: 0.018,inactive: 0.06,inactive: 0.004,inactive: -0.031,active: 0.569,active: -0.337,inactive: -0.061,inactive: 0.04
PSMB6 (UniProt P28072),inactive: -0.049,inactive: -0.004,inactive: 0.032,inactive: 0.024,inactive: 0.021,inactive: 0.012,inactive: -0.082,inactive: 0.049,inactive: -0.005,inactive: 0.07
PSMD9 (UniProt O00233),inactive: 0.002,inactive: 0.039,inactive: -0.023,inactive: 0.034,inactive: -0.002,inactive: -0.001,inactive: -0.122,inactive: 0.041,inactive: 0.004,inactive: 0.004
PTPMT1 (UniProt Q8WUK0),inactive: -0.077,inactive: 0.011,inactive: 0.154,inactive: 0.005,inactive: -0.006,inactive: -0.11,inactive: 0.197,inactive: -0.427,inactive: 0.016,inactive: -0.135
PSMB7 (UniProt Q99436),inactive: 0.02,inactive: -0.013,inactive: -0.024,inactive: 0.017,inactive: 0.037,inactive: -0.025,inactive: -0.039,inactive: 0.035,inactive: 0.003,inactive: 0.015
PSMD11 (UniProt O00231),inactive: -0.027,inactive: 0.004,inactive: 0.005,inactive: -0.031,inactive: -0.032,inactive: -0.007,inactive: -0.011,inactive: -0.008,inactive: 0.009,inactive: -0.022
PWP2 (UniProt Q15269),inactive: 0.033,inactive: 0.045,inactive: 0.044,inactive: 0.006,inactive: -0.013,inactive: 0.018,inactive: 0.015,inactive: -0.038,inactive: 0.015,inactive: 0.052
PSMD3 (UniProt O43242),inactive: -0.02,inactive: -0.003,inactive: -0.003,inactive: -0.031,inactive: -0.015,inactive: 0.001,inactive: -0.018,inactive: 0.009,inactive: -0.008,inactive: 0
PRPSAP1 isoform 2 (UniProt Q14558),inactive: 0.029,inactive: -0.003,inactive: -0.04,inactive: 0.053,inactive: -0.001,inactive: -0.035,inactive: -0.036,inactive: 0.02,inactive: -0.014,inactive: -0.006
PTBP2 isoform 2 (UniProt Q9UKA9),inactive: 0.125,inactive: 0.002,inactive: -0.052,inactive: 0.137,inactive: -0.071,inactive: -0.054,inactive: -0.176,inactive: 0.148,inactive: 0.032,inactive: 0.068
PRRC2B (UniProt Q5JSZ5),inactive: 0.022,inactive: -0.021,inactive: -0.081,inactive: 0.109,inactive: -0.012,inactive: 0.02,inactive: 0.096,inactive: -0.018,inactive: 0.032,inactive: 0
PSMG1 (UniProt O95456),inactive: -0.024,inactive: -0.019,inactive: -0.062,inactive: -0.017,inactive: 0.01,inactive: -0.024,inactive: -0.012,inactive: 0.02,inactive: -0.017,inactive: 0.019
PSME1 (UniProt Q06323),inactive: -0.013,inactive: -0.011,inactive: -0.037,inactive: 0.017,inactive: 0.027,inactive: 0.039,inactive: 0.081,inactive: -0.007,inactive: -0.01,inactive: 0.018
PTGES3 (UniProt Q15185),inactive: -0.017,inactive: 0.019,inactive: -0.016,inactive: 0.04,inactive: -0.005,inactive: -0.004,inactive: 0.109,inactive: -0.021,inactive: -0.013,inactive: -0.033
PSMD5 (UniProt Q16401),inactive: -0.012,inactive: 0.001,inactive: -0.016,inactive: 0.021,inactive: -0.015,inactive: 0.03,inactive: 0.021,inactive: -0.02,inactive: 0.012,inactive: -0.005
PSMG2 (UniProt Q969U7),inactive: -0.008,inactive: 0.026,inactive: -0.07,inactive: -0.023,inactive: 0.022,inactive: -0.004,inactive: -0.061,inactive: 0.03,inactive: 0.001,inactive: 0.001
PTRHD1 (UniProt Q6GMV3),inactive: -0.012,inactive: 0,inactive: 0.137,inactive: 0.007,inactive: 0.038,inactive: 0.098,inactive: 0.07,inactive: -0.088,inactive: 0.02,inactive: -0.039
PTGES2 (UniProt Q9H7Z7),active: 0.547,inactive: 0.06,inactive: -0.107,inactive: -0.108,inactive: 0.159,inactive: -0.053,inactive: -0.003,inactive: -0.18,inactive: -0.029,inactive: 0.058
PUS7 isoform 2 (UniProt Q96PZ0),inactive: 0.002,inactive: 0.009,inactive: 0.001,inactive: 0.047,inactive: 0.013,inactive: -0.027,inactive: -0.024,inactive: 0.031,inactive: -0.003,inactive: 0.005
PSEN1 (UniProt P49768),inactive: -0.135,inactive: -0.018,inactive: 0.127,inactive: -0.109,inactive: 0.006,inactive: 0.074,inactive: 0.093,inactive: -0.06,inactive: 0.066,inactive: -0.022
PSME3 isoform 2 (UniProt P61289),inactive: -0.005,inactive: -0.006,inactive: -0.028,inactive: 0.011,inactive: 0.025,inactive: -0.001,inactive: 0.015,inactive: 0.014,inactive: -0.022,inactive: 0.032
PSMD7 (UniProt P51665),inactive: -0.01,inactive: -0.004,inactive: 0.023,inactive: 0.02,inactive: -0.01,inactive: 0.001,inactive: -0.018,inactive: 0.013,inactive: 0.008,inactive: 0.031
PSD4 (UniProt Q8NDX1),inactive: -0.044,inactive: 0.029,inactive: 0.016,inactive: -0.014,inactive: -0.075,inactive: 0.003,inactive: 0.193,inactive: -0.03,inactive: 0.048,inactive: 0.005
PRPS2 isoform 2 (UniProt P11908),inactive: -0.004,inactive: -0.018,inactive: -0.005,inactive: -0.066,inactive: 0.002,inactive: 0.02,inactive: 0.037,inactive: 0.046,inactive: -0.006,inactive: -0.014

# Laid out differently: results already given.
Target | log2 fold change (vemurafenib) | log2 fold change [1] | log2 fold change (barasertib) | log2 fold change [2] | log2 fold change (volasertib) | log2 fold change [3] | log2 fold change [4] | log2 fold change [5] | log2 fold change (saracatinib) | log2 fold change (sotrastaurin)
PSME3 isoform 2 (UniProt P61289) | inactive: -0.005 | inactive: -0.006 | inactive: -0.028 | inactive: 0.011 | inactive: 0.025 | inactive: -0.001 | inactive: 0.015 | inactive: 0.014 | inactive: -0.022 | inactive: 0.032
PSMD7 (UniProt P51665) | inactive: -0.01 | inactive: -0.004 | inactive: 0.023 | inactive: 0.02 | inactive: -0.01 | inactive: 0.001 | inactive: -0.018 | inactive: 0.013 | inactive: 0.008 | inactive: 0.031

# Reference: the supplement of paper PMC10849652
